Positions count from the first letter of the chain named. No constants are given. Whether binding was seen depends on the method and setting. Binding seen in cells or lysates may run through a third protein. Binding calls can cover weak binding; strength is not graded here. Sequences can lack the tags named with a protein.
Columns and labels:
Test in all cases: co-IP
[1] = target: T1, mRFP:αSNAP2 (alpha-soluble NSF-associated protein 2, wild-type form, RFP-tagged) (Arabidopsis thaliana) (UniProt Q9SPE6)
T1 sequence: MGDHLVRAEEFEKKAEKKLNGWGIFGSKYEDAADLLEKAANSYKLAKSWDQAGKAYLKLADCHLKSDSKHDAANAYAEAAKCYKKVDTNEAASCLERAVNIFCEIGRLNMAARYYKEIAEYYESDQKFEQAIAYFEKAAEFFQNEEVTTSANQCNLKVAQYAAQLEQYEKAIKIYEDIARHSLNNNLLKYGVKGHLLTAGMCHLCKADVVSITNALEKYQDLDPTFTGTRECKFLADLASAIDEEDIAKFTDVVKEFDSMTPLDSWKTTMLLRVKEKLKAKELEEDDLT

[2] = target: T2, mRFP:αSNAP2_(L288A) (dominant-negative variant of αSNAP2, RFP-tagged) (Arabidopsis thaliana) (UniProt Q9SPE6)
T2 sequence: T1 sequence with L288A

[3] = target: T3, NSF:GFP (N-ethylmaleimide-sensitive factor, wild-type form, GFP-tagged) (Arabidopsis thaliana) (UniProt Q9M0Y8)
T3 sequence: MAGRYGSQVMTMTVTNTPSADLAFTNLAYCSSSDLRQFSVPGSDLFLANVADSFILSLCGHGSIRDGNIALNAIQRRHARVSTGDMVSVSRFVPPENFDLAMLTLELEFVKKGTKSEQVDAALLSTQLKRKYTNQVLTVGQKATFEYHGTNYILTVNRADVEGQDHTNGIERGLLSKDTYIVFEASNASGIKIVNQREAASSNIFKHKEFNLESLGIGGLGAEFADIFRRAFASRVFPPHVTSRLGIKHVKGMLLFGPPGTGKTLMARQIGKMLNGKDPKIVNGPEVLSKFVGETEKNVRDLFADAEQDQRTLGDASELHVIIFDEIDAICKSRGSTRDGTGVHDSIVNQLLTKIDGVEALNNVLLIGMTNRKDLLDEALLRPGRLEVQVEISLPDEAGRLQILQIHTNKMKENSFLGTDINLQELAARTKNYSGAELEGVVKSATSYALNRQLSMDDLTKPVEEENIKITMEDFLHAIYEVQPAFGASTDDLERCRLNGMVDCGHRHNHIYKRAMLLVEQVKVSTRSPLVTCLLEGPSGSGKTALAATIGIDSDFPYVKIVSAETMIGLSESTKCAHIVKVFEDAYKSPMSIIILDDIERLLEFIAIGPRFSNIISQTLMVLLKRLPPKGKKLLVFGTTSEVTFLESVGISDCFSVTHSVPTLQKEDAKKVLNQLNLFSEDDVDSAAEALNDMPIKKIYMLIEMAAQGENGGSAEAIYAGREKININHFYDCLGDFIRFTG

Measured: binding

KNOLLE (cytokinesis-specific Qa-SNARE)
binds: all assays above

Reference: paper doi:10.1101/2022.04.29.490041
